Test results as given in publication doi:10.1101/2024.10.31.621288.
Results are given in words; binding and its absence hold for the method and conditions named. Binding seen in cells or lysates may run through a third protein. Some results given as binding are weak or reduced against the parent protein; the word gives no strength. For some assays here: Tags and fused reporters may be left off the sequences shown. Blank lines part the entries; values can stand above or below the molecule they belong to.

What was measured:
[1] = target: T1, MKK4 (BiFC constructs MKK4-nYFP and MKK4-cYFP) (Arabidopsis) (UniProt O80397); test: split reporter
T1 sequence: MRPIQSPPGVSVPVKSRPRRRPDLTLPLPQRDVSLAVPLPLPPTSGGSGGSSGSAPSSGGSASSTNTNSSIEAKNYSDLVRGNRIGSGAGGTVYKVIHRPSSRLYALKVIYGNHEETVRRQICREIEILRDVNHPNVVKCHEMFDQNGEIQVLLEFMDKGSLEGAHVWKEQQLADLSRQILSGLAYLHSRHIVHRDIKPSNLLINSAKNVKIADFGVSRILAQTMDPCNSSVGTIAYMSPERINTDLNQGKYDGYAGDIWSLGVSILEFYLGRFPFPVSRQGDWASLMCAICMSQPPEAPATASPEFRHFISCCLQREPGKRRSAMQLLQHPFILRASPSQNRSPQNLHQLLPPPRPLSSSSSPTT

[2] = target: T2, MKK5 (BiFC constructs MKK5-nYFP and MKK5-cYFP) (Arabidopsis) (UniProt Q8RXG3); test: split reporter
T2 sequence: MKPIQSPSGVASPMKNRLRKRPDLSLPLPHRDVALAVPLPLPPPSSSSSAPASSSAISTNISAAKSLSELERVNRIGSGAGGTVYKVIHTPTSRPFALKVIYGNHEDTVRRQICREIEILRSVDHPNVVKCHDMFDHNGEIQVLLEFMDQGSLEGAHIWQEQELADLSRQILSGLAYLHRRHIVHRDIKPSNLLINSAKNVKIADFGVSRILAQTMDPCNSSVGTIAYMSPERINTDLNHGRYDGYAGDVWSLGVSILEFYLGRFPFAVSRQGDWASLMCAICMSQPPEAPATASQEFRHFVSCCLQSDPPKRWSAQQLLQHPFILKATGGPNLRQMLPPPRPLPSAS

[3] = target: MPK6 (BiFC constructs MPK6-nYFP and MPK6-cYFP) (Arabidopsis) (UniProt Q39026); test: split reporter
[4] = target: T3, MKK4 (tagged constructs for Co-IP) (Arabidopsis) (UniProt O80397); test: co-IP
T3 sequence: T1 sequence

[5] = target: T4, MKK5 (tagged constructs for Co-IP) (Arabidopsis) (UniProt Q8RXG3); test: co-IP
T4 sequence: T2 sequence

[6] = target: MPK6 (tagged constructs for Co-IP) (Arabidopsis) (UniProt Q39026); test: co-IP
[7] = target: MPK3 (BiFC constructs MPK3-nYFP and MPK3-cYFP) (Arabidopsis) (UniProt Q39023); test: split reporter
[8] = target: T5, MPK6 (BiFC constructs MPK6-nYFP and MPK6-cYFP) (Arabidopsis), Q39026; test: split reporter; details: remark: other sources report otherwise
T5 chain: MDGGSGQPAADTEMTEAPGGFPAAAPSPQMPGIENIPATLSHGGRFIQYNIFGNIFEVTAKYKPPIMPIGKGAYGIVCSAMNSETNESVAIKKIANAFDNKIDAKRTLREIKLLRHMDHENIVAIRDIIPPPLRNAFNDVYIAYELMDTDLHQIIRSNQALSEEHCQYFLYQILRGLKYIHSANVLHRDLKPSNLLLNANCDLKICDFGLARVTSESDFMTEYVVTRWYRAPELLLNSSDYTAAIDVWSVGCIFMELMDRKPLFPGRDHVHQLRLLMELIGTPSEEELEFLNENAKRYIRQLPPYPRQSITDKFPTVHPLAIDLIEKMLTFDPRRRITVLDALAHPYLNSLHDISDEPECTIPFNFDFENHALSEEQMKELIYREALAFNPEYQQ

[9] = target: T6, MPK6 (tagged constructs for Co-IP) (Arabidopsis), Q39026; test: co-IP; details: remark: other sources report otherwise
T6 chain: T5 chain

[10] = target: MPK3 (tagged constructs for Co-IP) (Arabidopsis) (UniProt Q39023); test: co-IP

binding [1]: binds
binding [2]: binds
binding [3]: binds
Molecule: MPK6 (BiFC constructs MPK6-nYFP and MPK6-cYFP) (from UniProt Q39026 1-395)

binding [4]: binds
binding [5]: binds
binding [6]: binds
Molecule: MPK6 (tagged constructs for Co-IP) (from UniProt Q39026 1-395)

binding [1]: binds
binding [2]: binds
binding [7]: binds
B1: MPK3 (BiFC constructs MPK3-nYFP and MPK3-cYFP) (protein, UniProt Q39023 1-370)
chain: MNTGGGQYTDFPAVETHGGQFISYDIFGSLFEITSKYRPPIIPIGRGAYGIVCSVLDTETNELVAMKKIANAFDNHMDAKRTLREIKLLRHLDHENIIAIRDVVPPPLRRQFSDVYISTELMDTDLHQIIRSNQSLSEEHCQYFLYQLLRGLKYIHSANIIHRDLKPSNLLLNANCDLKICDFGLARPTSENDFMTEYVVTRWYRAPELLLNSSDYTAAIDVWSVGCIFMELMNRKPLFPGKDHVHQMRLLTELLGTPTESDLGFTHNEDAKRYIRQLPNFPRQPLAKLFSHVNPMAIDLVDRMLTFDPNRRITVEQALNHQYLAKLHDPNDEPICQKPFSFEFEQQPLDEEQIKEMIYQEAIALNPTYG

binding [8]: binds
B2: MPK3 (BiFC constructs MPK3-nYFP and MPK3-cYFP), Q39023 1-370 (protein)
chain: B1 chain

binding [9]: binds
B3: MPK3 (tagged constructs for Co-IP), Q39023 1-370 (protein)
chain: B1 chain

binding [4]: binds
binding [5]: binds
binding [10]: binds
B4: MPK3 (tagged constructs for Co-IP) (protein, UniProt Q39023 1-370)
chain: B1 chain

binding [4]: binds
binding [5]: binds
B5: MKK4 (tagged constructs for Co-IP) (protein, UniProt O80397 1-366)
chain: T1 sequence

binding [1]: binds
binding [2]: binds
B6: MKK4 (BiFC constructs MKK4-nYFP and MKK4-cYFP) (protein, UniProt O80397 1-366)
chain: T1 sequence

binding [5]: binds
B7: MKK5 (tagged constructs for Co-IP) (protein, UniProt Q8RXG3 1-348)
chain: T2 sequence

binding [2]: binds
B8: MKK5 (BiFC constructs MKK5-nYFP and MKK5-cYFP) (protein, UniProt Q8RXG3 1-348)
chain: T2 sequence
